Experimental findings from patent US9040481B2 (The General Hospital Corporation, priority 2010, dated 2015) are described below.

Where a sequence shows no end group, the ends are not given. Some peptides are written in HELM: one residue between dots, names in brackets for other building blocks, links after the first $.

A short description of the data set: peptide synthesis. As to conditions: whole synthesis, HPLC and mass spectrometry.

With FIAWLVRGRG, the “final HPLC purity” value is listed as above 98%.
With “PEPTIDE1{F.I.A.W.L.V.K.G.R.[am]}$$$$V2.0”, the “final HPLC purity” value is recorded as above 98%.
